For this test, the target named is TMEM9-HA (lentiviral, iNeurons) (human) (UniProt Q9P0T7). The experiment in a line: affinity purification with mass spectrometry; anti-HA immunoprecipitations from TMEM9-/- iNeurons (day 21) with or without lentiviral expression of TMEM9-HA, four biological replicates; 0.5% DDM extraction; TMT-MS.

By UniProt entry, the sequences of proteins in these tests, tags left out. Residues count along the entry.
UniProt Q9P0T7, residues 21-183: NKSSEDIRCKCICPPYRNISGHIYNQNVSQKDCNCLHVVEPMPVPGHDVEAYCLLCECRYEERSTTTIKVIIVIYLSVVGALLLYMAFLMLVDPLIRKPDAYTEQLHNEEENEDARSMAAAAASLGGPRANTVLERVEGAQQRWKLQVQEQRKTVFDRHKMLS
UniProt P51793: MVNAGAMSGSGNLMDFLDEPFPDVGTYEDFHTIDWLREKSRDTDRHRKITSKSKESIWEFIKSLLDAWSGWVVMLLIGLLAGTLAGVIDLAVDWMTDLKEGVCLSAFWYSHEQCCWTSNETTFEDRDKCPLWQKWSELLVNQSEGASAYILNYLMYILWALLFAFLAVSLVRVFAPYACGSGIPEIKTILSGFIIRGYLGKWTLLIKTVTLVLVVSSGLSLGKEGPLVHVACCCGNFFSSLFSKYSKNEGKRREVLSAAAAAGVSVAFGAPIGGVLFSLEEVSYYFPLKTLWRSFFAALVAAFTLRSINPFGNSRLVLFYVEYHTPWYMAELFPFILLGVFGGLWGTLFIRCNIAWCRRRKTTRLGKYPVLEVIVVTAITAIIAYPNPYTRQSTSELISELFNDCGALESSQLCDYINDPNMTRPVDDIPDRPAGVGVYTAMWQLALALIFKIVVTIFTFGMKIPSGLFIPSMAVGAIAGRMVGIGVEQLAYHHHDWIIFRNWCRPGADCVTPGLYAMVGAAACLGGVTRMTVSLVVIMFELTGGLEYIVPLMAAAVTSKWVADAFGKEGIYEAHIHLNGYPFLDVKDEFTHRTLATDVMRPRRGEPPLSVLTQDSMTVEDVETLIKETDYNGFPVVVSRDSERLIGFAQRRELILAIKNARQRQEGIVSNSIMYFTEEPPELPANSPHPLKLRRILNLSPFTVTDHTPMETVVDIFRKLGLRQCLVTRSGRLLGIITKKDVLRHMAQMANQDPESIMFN

No constants are given. Whether binding was seen depends on the method and setting. In cells and extracts the contact can be indirect. These calls come from enrichment with a bait or labelling near it, and not all partners need be listed.

As for CLCN4 (from UniProt P51793 1-760), the binding result is listed as “binds”.
